Assay results published in PubChem BioAssay AID977622 (Broad Institute, 2014).
The other results are listed elsewhere or left out. The main result of the screen is listed elsewhere. These columns were measured beside it and carry no call.

Assays:
[1] = wild-type E. coli growth inhibition versus h38 humanized strain – h38 mutant RFP, wild-type GFP, cherry-pick, dose response (AID 977622); conditions: E. coli mixed culture, 24 h, total growth OD600 at 50 uM
[2] = test system: E. coli h38 humanized mutant ribosome RFP fluorescence, mixed culture, 24 h; assay: as above; conditions: h38 mutant RFP at 50 uM

Structure (SMILES): Cc1ccc(C#N)c(SCc2ccccc2F)n1
- activity change [1]: -74.7%
- activity change [2]: -1.16%

Structure (SMILES): CC1CCCN(C(=O)C(C)Nc2cc(Cl)ccc2N2CCOCC2)C1 (centres undefined)
- activity change [1]: -40.1%
- activity change [2]: -13.6%

Structure (SMILES): O=C(NCc1ccc(-c2nc3ccccc3s2)cc1)c1ccco1
- activity change [1]: -37.2%
- activity change [2]: 26.5%

Structure (SMILES): COc1ccccc1CNC(=O)CN1C(=O)NC(c2ccccc2)(c2ccccc2)C1=O
- activity change [1]: -36.6%
- activity change [2]: -5.29%

Structure (SMILES): CCOc1ccccc1OCCCC(=O)N1CCN(S(=O)(=O)c2cc(F)ccc2F)CC1
- activity change [1]: -33.8%
- activity change [2]: -20.6%

Structure (SMILES): O=C(NCc1ccccc1Cl)c1ccc2c(c1)SC1=NS(=O)(=O)CCN12
- activity change [1]: -8.88%
- activity change [2]: -27.3%

Structure (SMILES): O=c1[nH]c(C2CCN(S(=O)(=O)c3ccc4c(c3)OCCO4)CC2)nc2c1nnn2Cc1ccccc1F
- activity change [1]: -46.7%
- activity change [2]: -25.6%

Structure (SMILES): COc1cc(NC(=O)c2ccc([N+](=O)[O-])o2)ccc1NC(=O)c1ccco1
- activity change [1]: -37.8%
- activity change [2]: -37.8%

Structure (SMILES): COC(=O)c1ccc2nc(-c3ccc(F)cc3)c(Cc3cccc(F)c3)n2c1
- activity change [1]: -6.52%

Structure (SMILES): CCc1nc2ccccc2c(C(=O)OCC(=O)NC(=O)c2cccn2C)c1C
- activity change [1]: -2.77%

Structure (SMILES): Cc1ccc(NC(=O)c2ccccc2F)c(NC(=O)c2ccccc2F)c1
- activity change [1]: -31.7%
- activity change [2]: -4.02%

Structure (SMILES): CNC(=O)c1ccsc1NC(=O)c1ccc(S(=O)(=O)N2CCc3ccccc32)cc1
- activity change [1]: -31.4%

Structure (SMILES): CCOc1ccc2nc(SCC(=O)Nc3nonc3C)[nH]c2c1
- activity change [1]: -13.9%

Structure (SMILES): COc1ccc(NC(=O)Nc2cccc3c2O[C@@H](CN(C)S(=O)(=O)c2ccc(Cl)cc2)[C@H](C)CN([C@H](C)CO)C3=O)cc1
- activity change [1]: -44.1%
- activity change [2]: 5.12%

Structure (SMILES): COc1ccc(OC)c(NC(=O)CN(C)CC(=O)Nc2ccccc2Br)c1
- activity change [1]: -31.5%
- activity change [2]: -20.9%

Structure (SMILES): O=C(c1ccccc1)C1CN(Cc2ccccc2)CCC1(O)c1ccccc1 (centres undefined)
- activity change [1]: -26.7%
- activity change [2]: 16.3%

Structure (SMILES): COc1ccc(NC(=O)Nc2cccc3c2O[C@H](CN(C)S(=O)(=O)c2ccc(Cl)cc2)[C@H](C)CN([C@@H](C)CO)C3=O)cc1
- activity change [1]: -82.1%
- activity change [2]: -32.2%

Structure (SMILES): COc1ccc(OC)c(S(=O)(=O)Nc2cccc3ccc(O)cc23)c1
- activity change [1]: -32.6%
- activity change [2]: -27%

Structure (SMILES): CC(C)(C)C1CCC(OCC(O)CN2CCN(c3ccccn3)CC2)CC1 (centres undefined)
- activity change [1]: -50.7%

Structure (SMILES): Cc1cc(SCC(=O)c2cccs2)n2nc(C)c(-c3ccc(Cl)cc3)c2n1
- activity change [1]: -2.12%
- activity change [2]: -7.39%

Structure (SMILES): CCOC(=O)Cc1nnc(NC(=O)CSc2nc3ccccc3[nH]2)s1
- activity change [1]: -14.9%
- activity change [2]: -1.54%

Structure (SMILES): O=C(NC1CCCC(C(F)(F)F)C1)c1ccc([N+](=O)[O-])o1 (centres undefined)
- activity change [1]: -20.8%
- activity change [2]: -35.6%

Structure (SMILES): O=C(Nc1ccc(C(=O)N2CCOCC2)cc1)C1CCCC1
- activity change [1]: 5.41%
- activity change [2]: 24.3%

Structure (SMILES): C[C@H](CO)N1C[C@H](C)[C@@H](CN(C)Cc2cccc(F)c2)Oc2ncc(C#CCc3ccccc3)cc2C1=O
- activity change [1]: -92.5%
- activity change [2]: 75.7%

Structure (SMILES): Cc1cccc(-c2ccc([C@@H]3[C@@H](CO)N4CCCCN(S(=O)(=O)c5cccs5)C[C@H]34)cc2)c1
- activity change [1]: -73.5%
- activity change [2]: -32.8%

Structure (SMILES): Cc1ccc(NC(=O)c2ccc(NCCCN3CCC(C)CC3)c([N+](=O)[O-])c2)cc1F
- activity change [1]: 0.422%
- activity change [2]: -19.7%

Structure (SMILES): COc1cccc(OCCNS(=O)(=O)c2ccccc2[N+](=O)[O-])c1
- activity change [1]: -5.42%
- activity change [2]: -16.5%

Structure (SMILES): CCN(c1ccccc1)S(=O)(=O)c1ccc(OC)c(OC)c1
- activity change [1]: -28.9%
- activity change [2]: -13.4%

Structure (SMILES): CN(c1ccccc1)S(=O)(=O)c1cccc(NC(=O)CCN2C(=O)C3CCCCC3C2=O)c1 (centres undefined)
- activity change [1]: -44.3%
- activity change [2]: -12.2%

Structure (SMILES): O=C(CSc1nc2ccccc2[nH]1)Nc1cccc(S(=O)(=O)N2CCOCC2)c1
- activity change [1]: -60.3%
- activity change [2]: 57.2%

Structure (SMILES): Cc1onc(-c2ccccc2Cl)c1C(=O)OCC(=O)c1ccccc1
- activity change [1]: -23.7%
- activity change [2]: -11.5%

Structure (SMILES): CCOC(=O)C(C)(C)n1nnc(-c2ccc([N+](=O)[O-])cc2)n1
- activity change [1]: -1.47%
- activity change [2]: 2.57%

Structure (SMILES): Cc1cccc(NS(=O)(=O)c2cc3c(cc2C)NC(=O)CO3)c1
- activity change [1]: -4.81%
- activity change [2]: -9.68%

Structure (SMILES): COc1ccc(CN(C)C[C@H]2Oc3ccc(NS(=O)(=O)c4ccc(Cl)cc4)cc3CC(=O)N([C@@H](C)CO)C[C@H]2C)cc1
- activity change [1]: -32.8%
- activity change [2]: 130%

Structure (SMILES): O=C(COC(=O)C1CC2C=CC1C2)NCCc1ccccc1 (centres undefined)
- activity change [1]: -9.44%
- activity change [2]: 24.7%

Structure (SMILES): COc1ccc(-n2c(-c3ccc(Cl)cc3)c[n+]3c2CCCCC3)cc1
- activity change [1]: -68.6%

Structure (SMILES): Cc1cc(C(C)(C)C)oc1C(=O)N(CC(=O)NC1CCCC1)c1c(C)cccc1C
- activity change [1]: -21.6%
- activity change [2]: 3.4%

Structure (SMILES): COc1ccc(-c2csc(NC(=O)c3ccccc3S(C)(=O)=O)n2)cc1
- activity change [1]: -47.2%
- activity change [2]: -40%

Structure (SMILES): Cc1noc2ncnc(SCc3ccc(C(F)(F)F)cc3)c12
- activity change [1]: -30.2%
- activity change [2]: -19.1%

Structure (SMILES): CN(C)CCCn1c(=O)n(Cc2ccco2)c(=O)c2c3c(sc21)CCCCC3
- activity change [1]: -19.7%
- activity change [2]: -4.63%

Structure (SMILES): O=C(COc1ccc(Br)cc1)Nc1ccc(C(=O)Nc2ccccc2C(=O)O)cc1
- activity change [1]: -16.4%
- activity change [2]: -20.4%

Structure (SMILES): CCOc1ccc2[nH]c3c(NCCN(C)C)ncnc3c2c1
- activity change [1]: 0.696%

Structure (SMILES): COc1ccc(NC(=O)C2CC3C=CC2C3)c([N+](=O)[O-])c1 (centres undefined)
- activity change [2]: -7.56%

Structure (SMILES): CCn1cc(CCC(=O)NCCc2ccccc2)c2ccccc21
- activity change [1]: -53%
- activity change [2]: -3.52%

Structure (SMILES): O=C(Nc1ccccc1)N1C[C@@H]2N[C@H](C1)[C@@H]2c1ccc(/C=C/c2ccccc2)cc1
- activity change [1]: -97.9%

Structure (SMILES): Cc1ccc(C2NC(=O)c3[nH]nc(-c4ccccc4)c32)cc1 (centres undefined)
- activity change [1]: -58.5%
- activity change [2]: -8.2%

Structure (SMILES): Cc1cc([N+](=O)[O-])nn1CC(=O)Nc1cc(F)ccc1F
- activity change [1]: 1.22%
- activity change [2]: -23.5%

Structure (SMILES): CCCn1c(NCc2ccc3c(c2)OCO3)nc2ccccc21
- activity change [2]: 1.53%

Structure (SMILES): C[C@@H]1NS(=O)(=O)c2c(F)cccc2O[C@@H]1c1ccccc1
- activity change [1]: -38.4%
- activity change [2]: 13%

Structure (SMILES): Cc1ccc2c(c1C)OC(=O)CC2c1ccccc1 (centres undefined)
- activity change [1]: -55%
- activity change [2]: -12.4%

Structure (SMILES): Cc1[nH]c2ccccc2c1C(=O)CSc1nc2ccccc2[nH]1
- activity change [1]: -35.4%

Structure (SMILES): C[C@@H]1CN([C@@H](C)CO)C(=O)CCCn2nncc2CO[C@H]1CN(C)C(=O)Nc1ccc(C(F)(F)F)cc1
- activity change [1]: -58.3%
- activity change [2]: -25%

Structure (SMILES): O=C(C[C@@H]1CC[C@H]2[C@@H](COC[C@H](O)CN2C(=O)Nc2cc(Cl)cc(Cl)c2)O1)N1CCOCC1
- activity change [1]: -17.5%
- activity change [2]: 42.1%

Structure (SMILES): C[C@@H]1CCCCO[C@H](CN(C)C(=O)CCCN(C)C)[C@@H](C)CN([C@H](C)CO)C(=O)c2cc(NC(=O)Nc3cccc4ccccc34)ccc2O1
- activity change [1]: -6.36%
- activity change [2]: -9.22%

Structure (SMILES): COc1ccc(NC(=O)Nc2cccc3c2O[C@H](CN(C)S(=O)(=O)c2ccc(Cl)cc2)[C@H](C)CN([C@H](C)CO)C3=O)cc1
- activity change [1]: -56.1%
- activity change [2]: -17.9%
